The results in this text go back to patent US12702715B2, “Targeted RNA degradation allows precision repurposing of protein-targeted small molecule medicines to RNA” (University of Florida Research Foundation, Incorporated, priority 2020, dated 2026).

The target of this assay is T1, ribonuclease L (RNase L), Q05823.
T1 chain: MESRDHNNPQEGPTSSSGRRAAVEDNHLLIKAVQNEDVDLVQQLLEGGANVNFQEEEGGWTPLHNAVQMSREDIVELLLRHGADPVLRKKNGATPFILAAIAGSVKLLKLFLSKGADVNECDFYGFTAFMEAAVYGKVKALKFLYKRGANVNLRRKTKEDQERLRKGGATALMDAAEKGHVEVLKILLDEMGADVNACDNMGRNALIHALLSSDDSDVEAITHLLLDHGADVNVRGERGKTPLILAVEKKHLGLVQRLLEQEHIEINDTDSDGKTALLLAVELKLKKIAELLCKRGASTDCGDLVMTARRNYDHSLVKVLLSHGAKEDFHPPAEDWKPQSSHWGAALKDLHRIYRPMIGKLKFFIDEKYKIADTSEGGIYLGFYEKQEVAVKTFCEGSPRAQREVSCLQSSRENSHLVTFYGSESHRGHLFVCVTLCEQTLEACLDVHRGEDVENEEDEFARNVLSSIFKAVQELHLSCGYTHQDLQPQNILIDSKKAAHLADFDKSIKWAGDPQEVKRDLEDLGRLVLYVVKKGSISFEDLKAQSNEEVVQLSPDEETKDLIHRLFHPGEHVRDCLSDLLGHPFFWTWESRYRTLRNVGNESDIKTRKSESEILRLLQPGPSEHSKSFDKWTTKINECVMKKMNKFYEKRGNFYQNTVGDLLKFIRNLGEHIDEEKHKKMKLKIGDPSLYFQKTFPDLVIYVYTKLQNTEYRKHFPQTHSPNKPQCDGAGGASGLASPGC
Put plainly: in vitro RNase L oligomerization induced by small molecule RIBOTAC 2, read by Western blot. The settings on record: remark: other sources report otherwise. In general terms: In western blotting, separated proteins are transferred to a membrane and probed.

No constants are given. Whether binding was seen depends on the method and setting. Some binding calls cover weakened binding; strength is not graded here.

B1: ribonuclease L (RNase L), Q05823 1-741 (enzyme, UniProt Q05823 1-741, looked up)
chain: MESRDHNNPQEGPTSSSGRRAAVEDNHLLIKAVQNEDVDLVQQLLEGGANVNFQEEEGGWTPLHNAVQMSREDIVELLLRHGADPVLRKKNGATPFILAAIAGSVKLLKLFLSKGADVNECDFYGFTAFMEAAVYGKVKALKFLYKRGANVNLRRKTKEDQERLRKGGATALMDAAEKGHVEVLKILLDEMGADVNACDNMGRNALIHALLSSDDSDVEAITHLLLDHGADVNVRGERGKTPLILAVEKKHLGLVQRLLEQEHIEINDTDSDGKTALLLAVELKLKKIAELLCKRGASTDCGDLVMTARRNYDHSLVKVLLSHGAKEDFHPPAEDWKPQSSHWGAALKDLHRIYRPMIGKLKFFIDEKYKIADTSEGGIYLGFYEKQEVAVKTFCEGSPRAQREVSCLQSSRENSHLVTFYGSESHRGHLFVCVTLCEQTLEACLDVHRGEDVENEEDEFARNVLSSIFKAVQELHLSCGYTHQDLQPQNILIDSKKAAHLADFDKSIKWAGDPQEVKRDLEDLGRLVLYVVKKGSISFEDLKAQSNEEVVQLSPDEETKDLIHRLFHPGEHVRDCLSDLLGHPFFWTWESRYRTLRNVGNESDIKTRKSESEILRLLQPGPSEHSKSFDKWTTKINECVMKKMNKFYEKRGNFYQNTVGDLLKFIRNLGEHIDEEKHKKMKLKIGDPSLYFQKTFPDLVIYVYTKLQNTEYRKHFPQTHSPNKPQCDGAGGASGLASPGC
For the molecule B1, the binding entry is reported as “binds”.
